Measurements taken from the supplement of paper PMC3334620.
Whole data set: some 33,000 sequences, median “E-score (-0.5 to 0.5)” near -0.016, cut for the highest 2% near 0.3. Some of the results follow.

Target: T1, Yer184c (UniProt P39961)
T1 sequence: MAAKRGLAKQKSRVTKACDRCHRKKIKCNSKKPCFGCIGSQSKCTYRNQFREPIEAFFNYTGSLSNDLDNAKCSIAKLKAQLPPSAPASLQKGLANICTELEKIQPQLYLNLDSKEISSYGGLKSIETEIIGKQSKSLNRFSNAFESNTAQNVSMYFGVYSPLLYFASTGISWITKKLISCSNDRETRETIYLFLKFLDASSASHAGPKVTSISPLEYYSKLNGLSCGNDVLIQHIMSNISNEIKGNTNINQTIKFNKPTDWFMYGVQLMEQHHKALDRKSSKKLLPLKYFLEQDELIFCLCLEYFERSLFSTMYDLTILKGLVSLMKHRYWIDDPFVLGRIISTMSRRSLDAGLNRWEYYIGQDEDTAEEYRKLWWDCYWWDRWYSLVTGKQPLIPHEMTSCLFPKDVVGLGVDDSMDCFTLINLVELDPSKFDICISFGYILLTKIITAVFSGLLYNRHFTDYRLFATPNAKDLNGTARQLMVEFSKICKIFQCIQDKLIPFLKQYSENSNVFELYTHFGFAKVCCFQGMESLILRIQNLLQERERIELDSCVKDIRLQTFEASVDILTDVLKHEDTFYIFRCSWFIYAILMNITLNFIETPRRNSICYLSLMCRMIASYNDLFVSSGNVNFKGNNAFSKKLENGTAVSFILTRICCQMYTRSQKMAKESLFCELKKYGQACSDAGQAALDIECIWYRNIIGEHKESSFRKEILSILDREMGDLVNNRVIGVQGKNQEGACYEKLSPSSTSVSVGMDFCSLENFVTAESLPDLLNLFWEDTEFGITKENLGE
Test: PBM E-score (8-mer binding enrichment) (E-score (-0.5 to 0.5)); higher = stronger / more preferred TF binding
Conditions: protein concentration: 100 nM; construct: GST-full length
Procedure, shortened: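 GST-tagged yeast TFs (full-length or DNA-binding domain) were made by PURExpress in vitro transcription/translation and applied at about 100-200 nM to universal all-10-mer Agilent arrays. The arrays were made double-stranded by primer extension, on fresh or once-stripped slides. Bound protein was detected with fluorescent anti-GST, and scans were normalised with masliner. Each ungapped eight-base word, pooled with its reverse complement, received an E-score (modified Wilcoxon-Mann-Whitney statistic) from the Universal PBM Analysis Suite.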

Row | Sequence | PBM E-score
1 | AAGGAATC | 0.0134
2 | ATTACCCG | 0.134
3 | ATGCTTCC | 0.0654
4 | ACACGGCA | 0.189
5 | CTCCGCTC | -0.14
6 | AGGCTCCC | -0.222
7 | CAGATCTC | -0.0778
8 | AACCAAAC | -0.103
9 | AGCACACC | -0.238
10 | ACCAAAAA | 0.248
11 | ATTTAGGC | 0.008
12 | GACGTCTC | -0.146
13 | GAGTGAAA | 0.021
14 | TCCAACCA | -0.132
15 | ATCTAGGG | -0.258
16 | ATCGTGCC | 0.0928
17 | CGTAGTTC | -0.115
18 | GGTTAAAC | 0.107
19 | GCCGAGGC | 0.386
20 | ATTTGGGC | -0.161
21 | AGCGAGAT | -0.0323
22 | CGAGCACG | -0.108
23 | GCAAACCA | 0.00588
24 | CTTAAGGC | -0.0152
25 | ATCGCTTC | -0.0737

Row | Sequence | PBM E-score
26 | ATCCTAGG | -0.142
27 | CCTACAGA | -0.15
28 | ACCCCGGT | -0.0834
29 | CTGGAGCC | -0.141
30 | AATGGGGT | -0.123
31 | GAACGTTC | -0.0747
32 | GAGCGTAC | -0.0881
33 | ATTGCCAC | 0.112
34 | AGCGATTA | -0.0456
35 | AGCCGAAG | 0.14
36 | CAGGACCA | -0.144
37 | ATCCATGA | -0.277
38 | CCGTGGCC | -0.0498
39 | CTGAAAAG | -0.0233
40 | CTGAGCAA | -0.0414
41 | CCTTGCAC | -0.0776
42 | AGCCTTCG | -0.209
43 | CATGCTCA | -0.103
44 | CATGCCTC | 0.0649
45 | GTAGCTAA | -0.0505
46 | CAGGCAGA | -0.0928
47 | CTAGCGGC | -0.14
48 | GCCGCGTA | 0.0371
49 | AACTGGTC | -0.0409
50 | AGTAGGCC | -0.0885

Row | Sequence | PBM E-score
51 | AGAGGGTG | -0.229
52 | ACCAGCTA | -0.154
53 | ATGCGCAA | 0.00178
54 | ATTATCCC | 0.0672
55 | CGTGAAAG | 0.0767
56 | ACTGCCCA | -0.242
57 | CTAAGTGC | 0.00555
58 | CCATAGGG | -0.158
59 | AGTCGTCG | -0.232
60 | AGATGATC | 0.166
61 | GTCTGCGA | -0.103
62 | TGCAAGCA | -0.0504
63 | CGTCATTC | 0.17
64 | AACCAAGG | -0.0527
65 | GCCTCAAA | -0.0686
66 | AAAGGCGT | -0.22
67 | CTGCAGGC | -0.229
68 | CTATGCCA | -0.245
69 | GCTAAACA | 0.113
70 | GGTTATAA | 0.0276
71 | CAACCACG | -0.0348
72 | CGAGGATA | -0.0721
73 | ATCGTGGA | 0.0447
74 | AAGCCTAT | -0.104
75 | GAAGCGAC | 0.0694

Fetched one by one from the entries so far:
Row | Sequence | PBM E-score
65 | GCCTCAAA | -0.0686
23 | GCAAACCA | 0.00588
42 | AGCCTTCG | -0.209
44 | CATGCCTC | 0.0649
4 | ACACGGCA | 0.189

Following part.

Row | Sequence | PBM E-score
76 | CTCGATTA | 0.0553
77 | CGGGCGTC | 0.0767
78 | CGGAGAGC | 0.116
79 | GAAAACTA | 0.0973
80 | ATATGGCC | -0.0384
81 | AGCTAAAT | -0.0985
82 | AGAGTTGC | 0.0599
83 | GGAAACAC | 0.208
84 | ACGTGGCT | -0.235
85 | GCAAGGCA | -0.0428
86 | AACACACG | -0.00676
87 | TGCACCAA | -0.291
88 | CATACACC | 0.00657
89 | TATGTTCA | 0.184
90 | AGGCTGCC | -0.125
91 | AACGTTGA | 0.0798
92 | CAAGGGTA | -0.254
93 | CGATTGTA | 0.16
94 | ATTGCCTC | 0.00377
95 | GCTCGCCA | -0.0673
96 | CATTTCAG | 0.0207
97 | GCCGCAGA | 0.0738
98 | ACTGGTAA | 0.0562
99 | GCTCCCAA | -0.107
100 | AAACGTGA | 0.00433

Row | Sequence | PBM E-score
101 | AGCAGTTG | -0.0709
102 | AATGCTTG | -0.113
103 | GTCCGCCA | -0.0698
104 | TTGCTAAA | 0.0301
105 | GCAGATGC | -0.149
106 | CACAGGCG | -0.21
107 | AAGCCAAT | -0.124
108 | TAACAAAA | 0.219
109 | GGCCACAC | -0.0153
110 | TCGTTGCA | -0.0315
111 | ACATTGTA | -0.0761
112 | CACTCCAC | -0.2
113 | AGACTCCT | -0.225
114 | TCACGAAA | 0.173
115 | ATCTAGGC | -0.236
116 | CGCCGGCC | 0.35
117 | ACGCTTCG | -0.109
118 | ACCGCGGC | 0.344
119 | CAACCTGC | -0.0979
120 | ACTACCGC | 0.126
121 | AAGGCTCG | -0.187
122 | CCCTTCGG | 0.0548
123 | AGACTCCC | -0.317
124 | TGCCTCAA | -0.0229
125 | CCTATTAC | -0.2

Row | Sequence | PBM E-score
126 | CGCGATCA | -0.0459
127 | CTCTCCAC | -0.286
128 | GCGAATGA | 0.149
129 | ACGTTTCT | -0.0299
130 | AATCCAAC | -0.0638
131 | CACCTCTG | -0.253
132 | ACGACCCT | -0.201
133 | AGGTGGTA | -0.0629
134 | CGACGAAC | 0.0631
135 | ACTTTCTG | 0.137
136 | CGCTTATA | 0.0756
137 | CGTCTTTC | -0.0906
138 | AAGCAAAG | -0.152
139 | CTGTGTCA | -0.0684
140 | AGATGCCC | -0.09
141 | GCAGTAGA | -0.109
142 | CGACAGAA | 0.149
143 | CGGCTACG | 0.154
144 | ACAAAGGG | -0.238
145 | GAGTCTAA | 0.0375
146 | CATCCGAG | 0.212
147 | GGCACACA | 0.0566
148 | CGTGTTAA | 0.0721
149 | GCTTTCAA | 0.131
150 | CGTGCCAC | -0.183

Row | Sequence | PBM E-score
151 | AGAAGTCA | 0.0449
152 | ATACTGTC | 0.0534
153 | CTCCTGCA | -0.21
154 | AGGCGCGC | 0.0287
155 | AGAGAACG | 0.0412
156 | ATGTTTAA | 0.162
157 | GCCAGGGA | -0.284
158 | ATCACAAA | -0.0606
159 | CACAGCCG | 0.186
160 | AGTCCTTA | -0.107
161 | CCGTTAAA | 0.157
162 | CTCAGAAC | 0.0913
163 | AACATCGA | 0.0284
164 | ATTGCTAG | 0.0345
165 | ACAGGCTC | -0.186
166 | GGAGCTCA | -0.0805
167 | CGGTTCAA | 0.0335
168 | GGGGTAAC | -0.138
169 | AGCGTGGA | -0.227
170 | ATGCGCAT | 0.0844
171 | CGATGAGC | 0.0433
172 | AATAGTAC | 0.149

Another view of part of the listing above:
AGAAGTCA
  PBM E-score = 0.0449
ATACTGTC
  PBM E-score = 0.0534
CTCCTGCA
  PBM E-score = -0.21
AGGCGCGC
  PBM E-score = 0.0287
